The values that follow come from EPA's ToxValDB 9.5.

Broadly, the NOAEL is the highest dose or exposure tested at which no adverse effect was seen.

The data set has as its system Rattus norvegicus. As to conditions: reproduction developmental; duration: 19 days; inhalation; Sprague-Dawley.

`CCCCCCCCCO` [Nonanol] returned an NOAEL of 150 mg/m3.
